Results from PubChem BioAssay AID250 (DTP/NCI, 2004).
The list shows only some results of the screen, not a fair sample: it gathers tests that were run many times, whatever their T/C, doses with no T/C, and many T/C values between a quarter and a half above the control. Further doses and runs are listed elsewhere. T/C is the treated group as % of the vehicle group. Where survival is the endpoint, the PubChem record calls one and a half times the control and up active, and a quarter to a half above the control has no call in these data; cut-offs in other NCI protocols can differ. Schedule codes are those of the source, read here as Q, the interval in days (D) or hours (H), X, the number of doses. Some entries hold several experiments; the values are given in rising order. Some T/C values are followed by the survivors on the day toxicity was checked, most often the fifth; without a count, all were alive then.

Legend:
[1] = test system: BDF1 mice, L1210 leukemia sc, survival T/C; assay: NCI In Vivo Anticancer Drug Screen. Data for tumor model L1210 Leukemia (subcutaneous) in B6D2F1 (BDF1) mice; conditions: T/C endpoint: median survival time, vehicle: Klucel (hydroxypropylcellulose) (HPC), higher T/C = longer survival
Procedure, shortened: (§1)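 Antitumor activity is assessed in mice with transplanted tumors by comparing the treated group (T) with the vehicle control group (C).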

[2] = test system: BDF1 mice, L1210 leukemia sc; assay: as above; conditions: T/C endpoint: median survival time, higher T/C = longer survival
Procedure, shortened: as §1

Compound: CC(CN1CC(=O)NC(=O)C1)N1CC(=O)NC(=O)C1 (stereo unspecified)
- T/C ([1]; dose: 100.0 mg/kg/injection, schedule: Q04DX003 (sc), evaluated on day 7): 107 % of control
- T/C ([1]; dose: 100.0 mg/kg/injection, schedule: Q04DX003 (sc), evaluated on day 30): 120 % of control
- T/C ([1]; dose: 100.0 mg/kg/injection, schedule: Q04DX003 (sc), evaluated on day 45): 105 % of control
- T/C ([1]; dose: 180.0 mg/kg/injection, schedule: Q04DX003 (oral), evaluated on day 5): 177 % of control
- T/C ([1]; dose: 180.0 mg/kg/injection, schedule: Q04DX003 (oral), evaluated on day 34): 172 % of control
- T/C ([1]; dose: 180.0 mg/kg/injection, schedule: Q04DX003 (oral), evaluated on day 45): 150 % of control
- T/C ([1]; dose: 200.0 mg/kg/injection, schedule: Q04DX003 (sc), evaluated on day 7): 122 % of control
- T/C ([1]; dose: 200.0 mg/kg/injection, schedule: Q04DX003 (sc), evaluated on day 45): 121 % of control
- T/C ([1]; dose: 300.0 mg/kg/injection, schedule: Q04DX003 (oral), evaluated on day 5): 164 and 211 % of control
- T/C ([1]; dose: 300.0 mg/kg/injection, schedule: Q04DX003 (oral), evaluated on day 34): 200 % of control
- T/C ([1]; dose: 300.0 mg/kg/injection, schedule: Q04DX003 (oral), evaluated on day 45): 166 % of control
- T/C ([1]; dose: 400.0 mg/kg/injection, schedule: Q04DX003 (sc), evaluated on day 7): 163 and 194 % of control
- T/C ([1]; dose: 400.0 mg/kg/injection, schedule: Q04DX003 (sc), evaluated on day 30): 155 % of control
- T/C ([1]; dose: 400.0 mg/kg/injection, schedule: Q04DX003 (sc), evaluated on day 45): 168 % of control
- T/C ([1]; dose: 500.0 mg/kg/injection, schedule: Q04DX003 (oral), evaluated on day 5): 258 % of control
- T/C ([1]; dose: 500.0 mg/kg/injection, schedule: Q04DX003 (oral), evaluated on day 34): 250 % of control
- T/C ([1]; dose: 800.0 mg/kg/injection, schedule: Q04DX003 (sc), evaluated on day 7): 110 and 114 % of control
- T/C ([1]; dose: 800.0 mg/kg/injection, schedule: Q04DX003 (sc), evaluated on day 30): 105 % of control
- T/C ([1]; dose: 800.0 mg/kg/injection, schedule: Q04DX003 (sc), evaluated on day 45): 115 % of control
- T/C ([2]; dose: 2.5 mg/kg/injection, schedule: Q03HX024 (sc), vehicle: Klucel (hydroxypropylcellulose) (HPC), evaluated on day 7): 137 % of control
- T/C ([2]; dose: 2.5 mg/kg/injection, schedule: Q03HX024 (sc), vehicle: Klucel (hydroxypropylcellulose) (HPC), evaluated on day 30): 140 % of control
- T/C ([2]; dose: 5.0 mg/kg/injection, schedule: Q03HX024 (sc), vehicle: Klucel (hydroxypropylcellulose) (HPC), evaluated on day 7): 141 % of control
- T/C ([2]; dose: 5.0 mg/kg/injection, schedule: Q03HX024 (sc), vehicle: Klucel (hydroxypropylcellulose) (HPC), evaluated on day 27): 145 % of control
- T/C ([2]; dose: 5.0 mg/kg/injection, schedule: Q03HX024 (sc), vehicle: Klucel (hydroxypropylcellulose) (HPC), evaluated on day 30): 140 % of control
- T/C ([2]; dose: 12.5 mg/kg/injection, schedule: Q01DX009 (ip), vehicle: steroid suspending solution): 130 % of control
- T/C ([2]; dose: 12.5 mg/kg/injection, schedule: Q01DX009 (sc), vehicle: steroid suspending solution): 130 % of control
- T/C ([2]; dose: 25.0 mg/kg/injection, schedule: Q01DX009 (ip), vehicle: steroid suspending solution): 140 % of control
- T/C ([2]; dose: 25.0 mg/kg/injection, schedule: Q01DX009 (sc), vehicle: steroid suspending solution): 140 % of control
- T/C ([2]; dose: 32.0 mg/kg/injection, schedule: Q01DX009 (ip), vehicle: Klucel (hydroxypropylcellulose) (HPC), evaluated on day 20): 127 % of control
- T/C ([2]; dose: 32.0 mg/kg/injection, schedule: Q01DX009 (ip), vehicle: Klucel (hydroxypropylcellulose) (HPC), evaluated on day 30): 143 % of control
- T/C ([2]; dose: 32.0 mg/kg/injection, schedule: Q01DX009 (ip), vehicle: other): 132 % of control [8 of 10 alive]
- T/C ([2]; dose: 39.0 mg/kg/injection, schedule: Q01DX009 (sc), vehicle: Klucel (hydroxypropylcellulose) (HPC)): 145 % of control
- T/C ([2]; dose: 50.0 mg/kg/injection, schedule: Q01DX009 (sc), vehicle: steroid suspending solution): 135 % of control
- T/C ([2]; dose: 64.0 mg/kg/injection, schedule: Q01DX009 (ip), vehicle: Klucel (hydroxypropylcellulose) (HPC)): 145 % of control
- T/C ([2]; dose: 64.0 mg/kg/injection, schedule: Q01DX009 (ip), vehicle: other): 145 % of control
- T/C ([2]; dose: 100.0 mg/kg/injection, schedule: Q04DX003 (ip), vehicle: Klucel (hydroxypropylcellulose) (HPC)): 131 % of control
- T/C ([2]; dose: 100.0 mg/kg/injection, schedule: Q04DX003 (ip), vehicle: other): 139 % of control
- T/C ([2]; dose: 100.0 mg/kg/injection, schedule: Q04DX003 (ip), vehicle: steroid suspending solution, evaluated on day 26): 135 % of control
- T/C ([2]; dose: 100.0 mg/kg/injection, schedule: Q04DX003 (ip), vehicle: steroid suspending solution, evaluated on day 33): 140 % of control
- T/C ([2]; dose: 100.0 mg/kg/injection, schedule: Q04DX003 (sc), vehicle: Klucel (hydroxypropylcellulose) (HPC), evaluated on day 7): 125 % of control
- T/C ([2]; dose: 128.0 mg/kg/injection, schedule: Q01DX009 (ip), vehicle: Klucel (hydroxypropylcellulose) (HPC), evaluated on day 20): 138 % of control
- T/C ([2]; dose: 128.0 mg/kg/injection, schedule: Q01DX009 (ip), vehicle: Klucel (hydroxypropylcellulose) (HPC), evaluated on day 30): 141 % of control
- T/C ([2]; dose: 128.0 mg/kg/injection, schedule: Q01DX009 (ip), vehicle: other): 130 % of control
- T/C ([2]; dose: 180.0 mg/kg/injection, schedule: Q01DX009 (sc), vehicle: Klucel (hydroxypropylcellulose) (HPC)): 140 % of control
- T/C ([2]; dose: 180.0 mg/kg/injection, schedule: Q04DX003 (oral), vehicle: Klucel (hydroxypropylcellulose) (HPC), evaluated on day 5): 148 % of control
- T/C ([2]; dose: 180.0 mg/kg/injection, schedule: Q04DX003 (sc), vehicle: Klucel (hydroxypropylcellulose) (HPC), evaluated on day 7): 130 % of control
- T/C ([2]; dose: 180.0 mg/kg/injection, schedule: Q04DX003 (sc), vehicle: Klucel (hydroxypropylcellulose) (HPC), evaluated on day 30): 133 % of control
- T/C ([2]; dose: 200.0 mg/kg/injection, schedule: Q01DX009 (sc), vehicle: steroid suspending solution): 135 % of control
- T/C ([2]; dose: 200.0 mg/kg/injection, schedule: Q04DX003 (ip), vehicle: other): 141 % of control
- T/C ([2]; dose: 200.0 mg/kg/injection, schedule: Q04DX003 (ip), vehicle: steroid suspending solution): 140 % of control
- T/C ([2]; dose: 200.0 mg/kg/injection, schedule: Q04DX003 (sc), vehicle: Klucel (hydroxypropylcellulose) (HPC), evaluated on day 7): 132 % of control
- T/C ([2]; dose: 200.0 mg/kg/injection, schedule: Q04DX003 (sc), vehicle: Klucel (hydroxypropylcellulose) (HPC), evaluated on day 30): 125 % of control
- T/C ([2]; dose: 200.0 mg/kg/injection, schedule: Q04DX003 (sc), vehicle: steroid suspending solution): 140 % of control
- T/C ([2]; dose: 500.0 mg/kg/injection, schedule: Q04DX003 (oral), vehicle: Klucel (hydroxypropylcellulose) (HPC), evaluated on day 5): 137 % of control
- T/C ([2]; dose: 500.0 mg/kg/injection, schedule: Q04DX003 (oral), vehicle: Klucel (hydroxypropylcellulose) (HPC), evaluated on day 45): 133 % of control
- T/C ([2]; dose: 833.0 mg/kg/injection, schedule: Q04DX003 (sc), vehicle: Klucel (hydroxypropylcellulose) (HPC)): 135 % of control
